PMC8750874
These are yes or no findings as the source states them, for the method shown. In cells and extracts the contact can be indirect. Some results given as binding are weak or reduced against the parent protein; the word gives no strength. For some assays here: Tags and fused reporters may be left off the sequences shown.

T1: full-length mouse Rubicon expressed from adenovirus (Ad-Rubicon) (mouse) (UniProt Q80U62)
T1 sequence: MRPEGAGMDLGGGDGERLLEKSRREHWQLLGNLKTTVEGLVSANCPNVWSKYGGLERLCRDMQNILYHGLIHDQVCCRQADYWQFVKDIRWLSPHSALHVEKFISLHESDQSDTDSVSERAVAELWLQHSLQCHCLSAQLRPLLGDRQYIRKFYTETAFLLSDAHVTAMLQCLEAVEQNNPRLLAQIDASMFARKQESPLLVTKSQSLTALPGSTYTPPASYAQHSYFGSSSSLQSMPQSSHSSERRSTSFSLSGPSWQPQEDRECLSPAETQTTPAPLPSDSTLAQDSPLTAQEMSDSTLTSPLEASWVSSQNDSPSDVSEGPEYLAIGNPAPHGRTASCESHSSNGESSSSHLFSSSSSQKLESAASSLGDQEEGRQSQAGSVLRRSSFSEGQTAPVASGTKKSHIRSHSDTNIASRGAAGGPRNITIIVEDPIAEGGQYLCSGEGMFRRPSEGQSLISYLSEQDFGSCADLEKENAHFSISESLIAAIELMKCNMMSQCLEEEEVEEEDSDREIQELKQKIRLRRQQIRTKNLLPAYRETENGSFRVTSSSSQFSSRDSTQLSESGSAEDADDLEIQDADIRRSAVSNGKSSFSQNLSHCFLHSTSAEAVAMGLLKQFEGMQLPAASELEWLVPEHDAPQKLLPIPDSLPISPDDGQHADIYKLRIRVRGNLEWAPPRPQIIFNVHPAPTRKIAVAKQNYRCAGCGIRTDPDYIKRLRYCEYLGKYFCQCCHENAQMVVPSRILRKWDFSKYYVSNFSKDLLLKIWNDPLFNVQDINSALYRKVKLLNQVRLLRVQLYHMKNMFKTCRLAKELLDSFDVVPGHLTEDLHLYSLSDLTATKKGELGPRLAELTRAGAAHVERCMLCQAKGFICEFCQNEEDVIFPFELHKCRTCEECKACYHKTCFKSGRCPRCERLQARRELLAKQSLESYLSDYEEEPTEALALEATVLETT

T2: Run/cysteine-rich-domain-containing Beclin1-interacting autophagy protein (Rubicon), mouse, endogenous (mouse (endogenous in BMDMs and colon)) (UniProt Q80U62)
T2 sequence: T1 sequence

T3: Rubicon, human, endogenous (human (endogenous in THP-1 and colon)) (UniProt Q92622)
T3 sequence: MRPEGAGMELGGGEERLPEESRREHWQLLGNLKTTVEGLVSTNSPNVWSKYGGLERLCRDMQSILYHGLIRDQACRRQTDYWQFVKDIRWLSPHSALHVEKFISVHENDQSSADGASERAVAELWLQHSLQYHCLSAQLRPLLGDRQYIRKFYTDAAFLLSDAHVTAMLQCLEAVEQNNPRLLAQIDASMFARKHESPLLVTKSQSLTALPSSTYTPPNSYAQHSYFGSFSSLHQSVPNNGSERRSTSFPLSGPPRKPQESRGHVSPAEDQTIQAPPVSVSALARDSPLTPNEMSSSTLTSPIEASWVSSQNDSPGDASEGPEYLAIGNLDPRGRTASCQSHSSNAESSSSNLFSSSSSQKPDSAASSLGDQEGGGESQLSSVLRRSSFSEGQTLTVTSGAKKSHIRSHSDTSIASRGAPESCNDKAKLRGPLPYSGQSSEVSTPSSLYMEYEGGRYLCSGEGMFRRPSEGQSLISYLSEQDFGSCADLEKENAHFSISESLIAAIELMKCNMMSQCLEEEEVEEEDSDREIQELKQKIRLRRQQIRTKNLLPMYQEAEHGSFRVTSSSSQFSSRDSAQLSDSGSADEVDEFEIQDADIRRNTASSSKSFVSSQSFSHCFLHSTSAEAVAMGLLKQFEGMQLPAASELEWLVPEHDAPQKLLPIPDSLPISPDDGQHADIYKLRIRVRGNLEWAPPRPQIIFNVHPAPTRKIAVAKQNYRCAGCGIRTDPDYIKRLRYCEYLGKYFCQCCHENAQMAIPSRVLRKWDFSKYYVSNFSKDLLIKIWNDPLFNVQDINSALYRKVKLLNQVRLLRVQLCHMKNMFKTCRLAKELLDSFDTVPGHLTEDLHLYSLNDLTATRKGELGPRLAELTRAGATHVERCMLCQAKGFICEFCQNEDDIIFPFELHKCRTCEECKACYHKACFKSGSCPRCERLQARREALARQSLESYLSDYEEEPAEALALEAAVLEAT

B1: p22phox (cytochrome b-245 light chain, CYBA), mouse, endogenous (protein, UniProt Q61462 1-192)
chain: MGQIEWAMWANEQALASGLILITGGIVATAGRFTQWYFGAYSIAAGVLICLLEYPRGKRKKGSTMERCGQKYLTSVVKLFGPLTRNYYVRAALHFLLSVPAGFLLATILGTVCLAIASVIYLLAAIRGEQWTPIEPKPKERPQVGGTIKQPPTNPPPRPPAEVRKKPSEGEEEAASAGGPQVNPMPVTDEVV
B2: p22phox (CYBA), human, endogenous (protein, UniProt P13498 1-195)
chain: MGQIEWAMWANEQALASGLILITGGIVATAGRFTQWYFGAYSIVAGVFVCLLEYPRGKRKKGSTMERWGQKYMTAVVKLFGPFTRNYYVRAVLHLLLSVPAGFLLATILGTACLAIASGIYLLAAVRGEQWTPIEPKPRERPQIGGTIKQPPSNPPPRPPAEARKKPSEEEAAVAAGGPPGGPQVNPIPVTDEVV

What was measured:
[1] = biological target: T1, full-length mouse Rubicon expressed from adenovirus (Ad-Rubicon) (mouse); experiment: co-IP; IP with anti-Rubicon, IB with anti-p22phox; BMDM lysates, cytosolic and mitochondrial fractions, NP-40 buffer; cells transduced with Ad-Vector, Ad-Rubicon or Ad-shRubicon; treated with LPS (100 ng/mL) for indicated times, LPS-primed plus ATP (1 mM, 30 min) or DSS (3%, 18 h), with or without Mito-TIPTP (1, 10, 100 nM)
[2] = biological target: T2, Run/cysteine-rich-domain-containing Beclin1-interacting autophagy protein (Rubicon), mouse, endogenous (mouse (endogenous in BMDMs and colon)); experiment: as above
[3] = biological target: T2, Run/cysteine-rich-domain-containing Beclin1-interacting autophagy protein (Rubicon), mouse, endogenous (mouse (endogenous in BMDMs and colon)); experiment: co-IP; mouse colon (3% DSS colitis model, Ad-vector or Ad-shRubicon, vehicle or Mito-TIPTP); IP with anti-Rubicon, IB with anti-p22phox and anti-Rubicon
[4] = biological target: T3, Rubicon, human, endogenous (human (endogenous in THP-1 and colon)); experiment: co-IP; colon of healthy controls (human normal), cytoplasmic and mitochondrial fractions; IP with anti-Rubicon, IB with anti-p22phox and anti-Rubicon
[5] = biological target: T3, Rubicon, human, endogenous (human (endogenous in THP-1 and colon)); experiment: co-IP; colon of ulcerative colitis patients, cytoplasmic and mitochondrial fractions; IP with anti-Rubicon, IB with anti-p22phox and anti-Rubicon

Row | Binder | binding [1] | binding [2] | binding [3] | binding [4] | binding [5]
1 | B1 | binds | binds | binds |  | 
2 | B2 |  |  |  | no binding (condition: colon lysates of healthy controls) | binds
